Data: article doi:10.1101/521369
Results are given in words; binding and its absence hold for the method and conditions named. For some of these results: In cells and extracts the contact can be indirect. Some binding calls cover weakened binding; strength is not graded here. For some of these results: Where a sequence is shown, tags or fusion partners need not be part of it.

Protein sequences, listed by entry. Tags and fused reporters are not part of them.
UniProt Q13283: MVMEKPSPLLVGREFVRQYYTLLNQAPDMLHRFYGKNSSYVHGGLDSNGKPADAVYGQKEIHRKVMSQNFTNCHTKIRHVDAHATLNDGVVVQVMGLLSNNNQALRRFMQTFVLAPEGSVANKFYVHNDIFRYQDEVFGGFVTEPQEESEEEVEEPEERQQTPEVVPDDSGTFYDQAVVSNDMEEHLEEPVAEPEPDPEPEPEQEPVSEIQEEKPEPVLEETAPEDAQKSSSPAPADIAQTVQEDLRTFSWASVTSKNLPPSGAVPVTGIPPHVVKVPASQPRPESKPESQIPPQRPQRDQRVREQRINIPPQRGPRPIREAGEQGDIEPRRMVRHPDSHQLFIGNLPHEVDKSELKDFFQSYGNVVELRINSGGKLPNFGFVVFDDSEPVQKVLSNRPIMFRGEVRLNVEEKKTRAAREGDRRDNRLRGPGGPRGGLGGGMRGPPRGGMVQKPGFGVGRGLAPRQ
UniProt Q9UKV8: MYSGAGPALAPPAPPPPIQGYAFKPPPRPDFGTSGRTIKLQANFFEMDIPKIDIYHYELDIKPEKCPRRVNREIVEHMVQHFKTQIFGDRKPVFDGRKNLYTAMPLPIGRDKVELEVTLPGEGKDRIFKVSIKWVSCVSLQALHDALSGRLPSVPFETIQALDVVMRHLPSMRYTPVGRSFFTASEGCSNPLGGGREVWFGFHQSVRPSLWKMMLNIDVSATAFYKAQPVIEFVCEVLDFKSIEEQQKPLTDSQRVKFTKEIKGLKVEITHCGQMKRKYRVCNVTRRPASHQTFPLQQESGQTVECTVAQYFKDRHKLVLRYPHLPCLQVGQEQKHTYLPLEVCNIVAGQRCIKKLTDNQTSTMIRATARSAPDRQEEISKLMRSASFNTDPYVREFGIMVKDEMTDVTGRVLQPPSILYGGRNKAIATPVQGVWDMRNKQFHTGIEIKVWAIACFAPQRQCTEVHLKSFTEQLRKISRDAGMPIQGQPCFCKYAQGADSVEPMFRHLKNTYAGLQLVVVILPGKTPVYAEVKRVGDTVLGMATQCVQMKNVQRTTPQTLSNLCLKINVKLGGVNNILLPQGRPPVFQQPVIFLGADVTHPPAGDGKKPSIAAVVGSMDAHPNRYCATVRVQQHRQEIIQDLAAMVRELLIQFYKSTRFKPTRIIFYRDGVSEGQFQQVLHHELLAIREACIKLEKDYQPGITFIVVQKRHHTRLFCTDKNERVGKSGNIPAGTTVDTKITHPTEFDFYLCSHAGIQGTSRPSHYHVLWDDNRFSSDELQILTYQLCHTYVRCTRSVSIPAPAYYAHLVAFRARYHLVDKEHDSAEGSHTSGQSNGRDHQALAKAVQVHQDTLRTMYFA
UniProt P63241: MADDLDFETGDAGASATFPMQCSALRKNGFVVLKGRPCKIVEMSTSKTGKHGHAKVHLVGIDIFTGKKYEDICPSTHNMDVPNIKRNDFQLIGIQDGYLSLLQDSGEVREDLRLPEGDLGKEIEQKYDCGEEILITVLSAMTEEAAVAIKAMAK

Assays:
eGFP-PLCβ1 = molecular target: T1, eGFP-PLCβ1 (UniProt P10687); experiment: FRET or BRET
T1 sequence: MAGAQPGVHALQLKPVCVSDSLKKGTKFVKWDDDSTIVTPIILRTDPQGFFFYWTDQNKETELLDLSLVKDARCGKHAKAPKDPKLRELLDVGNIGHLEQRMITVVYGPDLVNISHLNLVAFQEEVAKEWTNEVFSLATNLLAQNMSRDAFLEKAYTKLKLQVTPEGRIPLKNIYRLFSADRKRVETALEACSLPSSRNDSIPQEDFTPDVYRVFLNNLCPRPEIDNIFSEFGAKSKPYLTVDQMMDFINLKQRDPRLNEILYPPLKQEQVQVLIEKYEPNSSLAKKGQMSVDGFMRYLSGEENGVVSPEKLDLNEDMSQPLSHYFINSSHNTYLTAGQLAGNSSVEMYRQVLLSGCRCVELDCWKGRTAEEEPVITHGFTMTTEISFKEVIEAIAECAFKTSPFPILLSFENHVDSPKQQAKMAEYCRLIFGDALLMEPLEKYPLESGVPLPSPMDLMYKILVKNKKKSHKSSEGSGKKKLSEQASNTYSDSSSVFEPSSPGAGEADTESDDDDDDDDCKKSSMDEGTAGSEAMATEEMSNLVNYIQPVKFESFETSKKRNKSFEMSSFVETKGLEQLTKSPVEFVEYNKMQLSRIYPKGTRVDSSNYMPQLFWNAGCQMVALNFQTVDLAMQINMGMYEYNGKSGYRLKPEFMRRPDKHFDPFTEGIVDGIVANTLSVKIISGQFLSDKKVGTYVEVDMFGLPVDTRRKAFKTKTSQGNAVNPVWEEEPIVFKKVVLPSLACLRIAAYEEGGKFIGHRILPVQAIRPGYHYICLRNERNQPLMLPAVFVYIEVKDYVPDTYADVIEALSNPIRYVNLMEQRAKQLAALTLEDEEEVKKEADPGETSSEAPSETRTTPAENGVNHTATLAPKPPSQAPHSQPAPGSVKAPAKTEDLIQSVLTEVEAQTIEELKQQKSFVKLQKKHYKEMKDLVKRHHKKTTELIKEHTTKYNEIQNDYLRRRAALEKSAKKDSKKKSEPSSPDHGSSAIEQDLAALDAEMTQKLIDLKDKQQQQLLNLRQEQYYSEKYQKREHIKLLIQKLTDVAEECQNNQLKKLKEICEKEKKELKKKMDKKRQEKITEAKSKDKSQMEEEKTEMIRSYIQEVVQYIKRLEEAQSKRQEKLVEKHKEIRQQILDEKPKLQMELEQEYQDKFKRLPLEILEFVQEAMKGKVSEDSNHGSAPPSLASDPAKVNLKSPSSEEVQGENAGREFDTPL

[1] = molecular target: T2, phospholipase Cβ1 (PLCβ1), endogenous (rat (endogenous in PC12 and A10)) (UniProt P10687); experiment: co-IP
T2 sequence: T1 sequence

[2] = molecular target: T3, PLCβ1, purified (cross-linking) (UniProt P10687); experiment: cross-linking
T3 sequence: T1 sequence

In the case of eGFP-G3BP1 (from UniProt Q13283 1-466), the binding (eGFP-PLCβ1) is reported as “no binding”.
In the case of “Ago2, over-expressed (from UniProt Q9UKV8 1-859)”, the binding [1] is reported as “binds”.
With “eIF5A, purified, unlabeled (from UniProt P63241 1-154)” the binding [2] was “binds” and the binding (eGFP-PLCβ1) was “binds”.
